Test results from patent US20240384250A1, “FIBROBLAST GROWTH FACTOR 23 MODULATING COMPOUNDS” (THE UAB RESEARCH FOUNDATION, priority 2021, published 2024).

What was measured:
[1] = molecular target: recombinant FGF23 protein (species not stated for the assay); assay: sandwich plate assay: FGF23 coated, klotho preparation, then Fc-FGFR1c and anti-Fc-HRP [legend FIG. 22B]
[2] = molecular target: recombinant FGF23 protein (species not stated for the assay); assay: sKL detection assay (sandwich): FGF23 coated, sKL sample, then Fc-FGFR1c, anti-Fc-HRP (FIG. 22B)
[3] = molecular target: recombinant FGF23 protein (species not stated for the assay); assay: sKL detection assay (sandwich): FGF23 coated, sKL sample, then Fc-FGFR1c, anti-Fc-HRP, A450
[4] = molecular target: recombinant FGF23 protein (species not stated for the assay); assay: sandwich plate assay: FGF23 coated, klotho preparation, then Fc-FGFR1c and anti-Fc-HRP

Measured: binding

B1: commercial mouse sKL from R&D Systems (1819KL050) (receptor)
chain: AEPGQGAQTWARFARAPAPEAAGLLHDTFPDGFLWAVGSAAYQTEGGWRQHGKGASIWDTFTHHSGAAPSDSPIVVAPSGAPSPPLSSTGDVASDSYNNVYRDTEGLRELGVTHYRFSISWARVLPNGTAGTPNREGLRYYRRLLERLRELGVQPVVTLYHWDLPQRLQDTYGGWANRALADHFRDYAELCFRHFGGQVKYWITIDNPYVVAWHGYATGRLAPGVRGSSRLGYLVAHNLLLAHAKVWHLYNTSFRPTQGGRVSIALSSHWINPRRMTDYNIRECQKSLDFVLGWFAKPIFIDGDYPESMKNNLSSLLPDFTESEKRLIRGTADFFALSFGPTLSFQLLDPNMKFRQLESPNLRQLLSWIDLEYNHPPIFIVENGWFVSGTTKRDDAKYMYYLKKFIMETLKAIRLDGVDVIGYTAWSLMDGFEWHRGYSIRRGLFYVDFLSQDKELLPKSSALFYQKLIEDNGFPPLPENQPLEGTFPCDFAWGVVDNYVQVDTTLSQFTDPNVYLWDVHHSKRLIKVDGVVAKKRKPYCVDFSAIRPQITLLREMRVTHFRFSLDWALILPLGNQTQVNHTVLHFYRCMISELVHANITPVVALWQPAAPHQGLPHALAKHGAWENPHTALAFADYANLCFKELGHWVNLWITMNEPNTRNMTYRAGHHLLRAHALAWHLYDDKFRAAQKGKISIALQADWIEPACPFSQNDKEVAERVLEFDIGWLAEPIFGSGDYPRVMRDWLNQKNNFLLPYFTEDEKKLVRGSFDFLAVSHYTTILVDWEKEDPMKYNDYLEVQEMTDITWLNSPSQVAVVPWGLRKVLNWLRFKYGDLPMYVTANGIDDDPHAEQDSLRIYYIKNYVNEALKAYVLDDINLCGYFAYSLSDRSAPKSGFYRYAANQFEPKPSMKHYRKIIDSNGFLGSGTLGRFCPEEYTVCTECGFFQTRK
binds: [1] | [2] | [3] | [4]

Results are given in words; binding and its absence hold for the method and conditions named. Binding can be weak; no strength is given.
